Test results from the supplement of paper PMC10331698.
± gives the standard deviation of the averaged measurements. Most values lie at the level of the controls, where differences are scatter.

Legend:
Assay in all cases: level (log10 ratio to DMSO vehicle control); higher = higher biomarker level / cell amount than vehicle control
[1] = compound: C=C(C)C(=O)OCCC(F)(F)C(F)(F)C(F)(F)C(F)(F)C(F)(C(F)(F)F)C(F)(F)F [(Perfluoro-5-methylhexyl)ethyl 2-methylprop-2-enoate]; details: in DMSO
Experimental: (§1)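 BioMAP Diversity Plus panel of 12 human primary cell co-culture systems (3C, 4H, LPS, SAg, BT, BF4T, BE3C, CASM3C, HDF3CGF, KF3CT, MyoF, Mphg). Compounds were added 1 h before stimulation and left for 24 h (MyoF 48 h; BT 72 h for soluble read-outs or 6 d for IgG). Biomarkers were read by ELISA, cytotoxicity by SRB, PBMC viability and proliferation by Alamar Blue. Each well value was divided by the mean of 8 DMSO control wells on the same plate and log10 transformed; duplicate blinded samples were tested at 4 concentrations.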

[2] = compound: C=C(C)C(=O)OCCC(F)(F)C(F)(F)C(F)(F)C(F)(F)C(F)(F)C(F)(F)C(F)(F)C(F)(F)F [8:2 Fluorotelomer methacrylate]; details: in DMSO
Experimental: as §1

[3] = compound: COC(=O)CCC(F)(F)C(F)(F)C(F)(F)C(F)(F)F [Methyl 2H,2H,3H,3H-perfluoroheptanoate]; details: 2200 nM; in DMSO
Experimental: as §1

[4] = compound: FC(F)(F)C(F)(F)C(F)(F)C(F)(F)C(F)(F)CCI [1-Iodo-1H,1H,2H,2H-perfluoroheptane]; details: 2200 nM; in DMSO
Experimental: as §1

Octafluoroadipamide = compound: NC(=O)C(F)(F)C(F)(F)C(F)(F)C(F)(F)C(N)=O [Octafluoroadipamide]; details: 2200 nM; in DMSO
Experimental: as §1

Nonafluoropentanamide = compound: NC(=O)C(F)(F)C(F)(F)C(F)(F)C(F)(F)F [Nonafluoropentanamide]; details: 2200 nM; in DMSO
Experimental: as §1

[5] = compound: NS(=O)(=O)C(F)(F)C(F)(F)C(F)(F)C(F)(F)C(F)(F)C(F)(F)F [Perfluorohexanesulfonamide]; details: 2200 nM; in DMSO
Experimental: as §1

Tetrafluorosuccinic acid = compound: O=C(O)C(F)(F)C(F)(F)C(=O)O [Tetrafluorosuccinic acid]; details: 2200 nM; in DMSO
Experimental: as §1

[6] = compound: O=C(O)C(F)(F)C(F)(F)C(F)(F)C(F)(F)C(F)(F)C(F)(F)C(F)(F)C(F)(F)Cl [9-Chloro-perfluorononanoic acid]; details: in DMSO
Experimental: as §1

[7] = compound: O=C(O)CCC(F)(F)C(F)(F)C(F)(F)C(F)(F)C(F)(F)F [2H,2H,3H,3H-Perfluorooctanoic acid]; details: 2200 nM; in DMSO
Experimental: as §1

[8] = compound: O=S(=O)(O)C(F)(F)C(F)(F)OC(F)(F)C(F)(F)F [Perfluoro(2-ethoxyethane)sulfonic acid]; details: 2200 nM; in DMSO
Experimental: as §1

[9] = compound: O=S(=O)(O)CCC(F)(F)C(F)(F)C(F)(F)C(F)(F)C(F)(F)C(F)(F)F [6:2 Fluorotelomer sulfonic acid]; details: in DMSO
Experimental: as §1

Perfluoropinacol = compound: OC(C(F)(F)F)(C(F)(F)F)C(O)(C(F)(F)F)C(F)(F)F [Perfluoropinacol]; details: in DMSO
Experimental: as §1

[10] = compound: OCCC(F)(F)C(F)(F)C(F)(F)C(F)(F)F [4:2 Fluorotelomer alcohol]; details: 2200 nM; in DMSO
Experimental: as §1

| Test System | level (log10) ([1]; 740 nM) | level (log10) ([1]; 2200 nM) | level (log10) ([1]; 6700 nM) | level (log10) ([1]; 20000 nM) | level (log10) ([2]; 740 nM) | level (log10) ([2]; 2200 nM) | level (log10) [3] | level (log10) [4] | level (log10) (Octafluoroadipamide) | level (log10) (Nonafluoropentanamide) | level (log10) [5] | level (log10) (Tetrafluorosuccinic acid) | level (log10) ([6]; 2200 nM) | level (log10) ([6]; 6700 nM) | level (log10) ([6]; 20000 nM) | level (log10) [7] | level (log10) [8] | level (log10) ([9]; 2200 nM) | level (log10) ([9]; 6700 nM) | level (log10) ([9]; 20000 nM) | level (log10) ([9]; 60000 nM) | level (log10) (Perfluoropinacol; 2200 nM) | level (log10) (Perfluoropinacol; 6700 nM) | level (log10) (Perfluoropinacol; 20000 nM) | level (log10) [10] |
| --- | --- | --- | --- | --- | --- | --- | --- | --- | --- | --- | --- | --- | --- | --- | --- | --- | --- | --- | --- | --- | --- | --- | --- | --- | --- |
| BF4T:CCL26/Eotaxin-3 | -0.041 ± 0.044 | -0.0175 ± 0.016 | -0.0125 ± 0.0064 | 0.016 ± 0.044 | 0.017 ± 0.081 | 0.013 ± 0.033 | -0.024 ± 0.057 | -0.008 ± 0.02 | 0.0285 ± 0.071 | -0.02 ± 0.014 | 0.007 ± 0.028 | 0.002 ± 0.072 | -0.134 ± 0.058 | -0.144 ± 0.016 | -0.27 ± 0.014 | 0.026 ± 0.086 | 0.069 ± 0.0071 | 0.035 ± 0.062 | 0.001 ± 0.018 | -0.0535 ± 0.011 | -0.08 ± 0.078 | -0.0035 ± 0.047 | -0.108 ± 0.0042 | -0.217 ± 0.0057 | 0.0115 ± 0.07 |
| HDF3CGF:CXCL11/I-TAC | -0.005 ± 0.0085 | -0.003 ± 0.0099 | -0.013 ± 0.0014 | -0.0155 ± 0.013 | -0.051 ± 0.044 | -0.002 ± 0.028 | -0.0035 ± 0.011 | 0.0085 ± 0.036 | -0.0005 ± 0.033 | -0.0065 ± 0.037 | -0.0005 ± 0.0092 | -0.0225 ± 0.025 | -0.082 ± 0.024 | -0.105 ± 0.029 | -0.217 ± 0.069 | -0.0475 ± 0.06 | 0.0075 ± 0.0021 | -0.0555 ± 0.064 | -0.0445 ± 0.1 | -0.0605 ± 0.088 | -0.0885 ± 0.091 | -0.05 ± 0.071 | -0.062 ± 0.041 | -0.234 ± 0.015 | -0.003 ± 0.034 |
| CASM3C:LDLR | -0.022 ± 0.048 | 0.0115 ± 0.098 | -0.032 ± 0.03 | 0.018 ± 0.025 | -0.007 ± 0.0085 | -0.0095 ± 0.00071 | 0.0305 ± 0.032 | 0.0125 ± 0.011 | -0.0045 ± 0.012 | -0.008 ± 0.02 | -0.005 ± 0.014 | -0.0015 ± 0.011 | 0.014 ± 0.037 | -0.011 ± 0.013 | -0.0065 ± 0.0021 | 0.0135 ± 0.013 | 0.0085 ± 0.0078 | 0.0095 ± 0.013 | 0.009 ± 0.0057 | -0.001 ± 0.018 | 0.011 ± 0.04 | -0.055 ± 0.021 | -0.067 ± 0.0014 | -0.0505 ± 0.018 | -0.0445 ± 0.0078 |
| KF3CT:MMP-9 | -0.072 ± 0.047 | -0.04 ± 0.033 | -0.0045 ± 0.037 | -0.027 ± 0.041 | 0.005 ± 0.0071 | -0.0175 ± 0.0021 | -0.021 ± 0.04 | -0.0175 ± 0.03 | -0.006 ± 0.0099 | -0.022 ± 0.0014 | -0.0285 ± 0.026 | -0.0085 ± 0.03 | -0.014 ± 0.014 | -0.0345 ± 0.0021 | -0.106 ± 0.0071 | -0.0165 ± 0.005 | -0.0015 ± 0.00071 | -0.0175 ± 0.021 | -0.0285 ± 0.019 | 0.0085 ± 0.018 | 0.026 ± 0.0028 | 0.011 ± 0.031 | 0.01 ± 0.018 | -0.0245 ± 0.029 | -0.0645 ± 0.033 |
| MyoF:TIMP-1 | -0.022 ± 0.031 | -0.0285 ± 0.0035 | -0.031 ± 0.023 | -0.024 ± 0.0057 | -0.0335 ± 0.0035 | -0.014 ± 0.062 | -0.0145 ± 0.073 | -0.006 ± 0.0057 | 0.031 ± 0.021 | -0.0205 ± 0.0078 | 0.0305 ± 0.033 | -0.0075 ± 0.0021 | -0.0335 ± 0.043 | -0.0445 ± 0.063 | -0.006 ± 0.057 | -0.0515 ± 0.05 | -0.038 ± 0.025 | -0.0535 ± 0.033 | -0.032 ± 0.052 | 0.031 ± 0.042 | 0.097 ± 0.011 | -0.036 ± 0.0099 | 0.006 ± 0.016 | -0.021 ± 0.0028 | -0.0025 ± 0.06 |
